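Methionyl-tRNA synthetase (putative), Leishmania donovani (UniProt E9BF75). Primary screen of methionyl-tRNA synthetase; the read-out is not stated. The test concentration is not given. Values are per cent inhibition. Of about 68,000 compounds tested this way, about 24 (0.035%) reached 50% or more in at least one test.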

Chains of the proteins cited; added tags and fusions are not shown.
UniProt E9BF75, entry or part of it: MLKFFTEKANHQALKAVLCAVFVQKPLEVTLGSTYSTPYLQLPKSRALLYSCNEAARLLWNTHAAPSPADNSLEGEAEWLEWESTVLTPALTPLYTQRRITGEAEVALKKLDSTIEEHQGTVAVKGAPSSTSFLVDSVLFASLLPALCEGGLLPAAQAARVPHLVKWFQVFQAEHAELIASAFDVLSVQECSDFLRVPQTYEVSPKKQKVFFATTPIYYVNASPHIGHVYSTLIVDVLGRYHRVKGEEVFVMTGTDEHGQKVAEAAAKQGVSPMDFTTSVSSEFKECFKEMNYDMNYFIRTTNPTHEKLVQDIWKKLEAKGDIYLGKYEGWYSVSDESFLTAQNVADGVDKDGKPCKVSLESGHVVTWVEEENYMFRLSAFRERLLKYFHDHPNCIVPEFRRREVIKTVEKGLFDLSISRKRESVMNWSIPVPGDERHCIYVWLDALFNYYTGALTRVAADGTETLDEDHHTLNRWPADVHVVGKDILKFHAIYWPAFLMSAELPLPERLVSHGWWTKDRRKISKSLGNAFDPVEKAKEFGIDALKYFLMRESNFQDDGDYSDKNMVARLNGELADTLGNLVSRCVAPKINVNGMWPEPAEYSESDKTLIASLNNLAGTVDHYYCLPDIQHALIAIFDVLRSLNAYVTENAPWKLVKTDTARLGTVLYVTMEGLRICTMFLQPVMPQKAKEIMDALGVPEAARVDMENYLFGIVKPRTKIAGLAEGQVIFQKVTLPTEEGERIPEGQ

Results are percentages, as filed.
The record does not define 0% and 100%; most values in the screen are far below 50% and negative numbers occur (in some assays of this library far below -100).
Compounds were drawn at random from those tested, without regard to their results.

| Compound | Inhibition |
|---|---|
| `CN(C)CCCNC(=O)c1ccccc1NC(=O)c1ccccc1Cl` | 9.686% |
| `COCC1CC2(CCN(Cc3ccoc3)CC2)CN1Cc1ccccn1` (stereo not shown) | 7.273% |
| `CCC(NC(=O)COC)c1ccccc1OCC(=O)N1CCCC1` (stereo not shown) | 16.71% |
| `COc1ccc(NCCC(=O)NCc2cccnc2N(C)C)cc1` | 12.15% |
| `O=c1c2sccc2nc2n1CCN(Cc1cc(F)ccc1F)CC2` | 16.83% |
| `O=C(Cc1ccccc1Cl)Nc1ccn(CCN2CCOCC2)n1` | 15.85% |
| `CCOc1ncccc1CNCc1c(C)nn(C)c1N(C)C` | 10.83% |
| `Cc1nc(CN2C(=O)CCC23CCN(Cc2ccco2)CC3)cs1` | 17.66% |
| `CN(C(=O)COc1ccc(-c2noc(C3CCCO3)n2)cc1)C1CC1` (stereo not shown) | 12.01% |
| `Cc1oncc1C(=O)N[C@@H]1CN(Cc2ccco2)C[C@@H]2CCCO[C@@H]21` | 12.92% |
| `CCCNS(=O)(=O)c1ccc2[nH]c(=O)cc(C)c2c1` | 9.172% |
| `Cc1noc(C)c1CN1C[C@@H](NC(=O)N(C)C)[C@H](C(C)C)C1` | 6.015% |
| `O=C(NCc1ccco1)c1cccc(C(=O)NCc2ccco2)n1` | 14.58% |
| `COc1cc(N2CC3(CCN(S(=O)(=O)C4CC4)C3)C2)ncn1` | 11.35% |
| `CO[C@@H]1CO[C@@]2(CCCN(C(=O)C3CC=CC3)C2)C1` | 12.4% |
| `CC(C)(C)c1cc(=O)n2c(n1)SCC(C(=O)NCc1ccco1)C2` (stereo not shown) | 14.36% |
| `CNC(=O)C1CCCN(c2nc(-c3ccco3)nc3c2CCNCC3)C1` (stereo not shown) | 9.926% |
| `Cc1cnn(CC2CN(Cc3nc(C4CC4)no3)CCO2)c1` (stereo not shown) | 8.101% |
| `O=C(Cn1c(=O)oc2ccccc21)NCC(O)c1ccc2c(c1)CCO2` (stereo not shown) | -2.484% |
| `COC(=O)c1cccn1C1CCN(C(=O)c2ccc(C)cc2O)CC1` | 13.96% |
| `CC(NC(=O)c1ccoc1)c1ccc2c(c1)CCC(=O)N2` (stereo not shown) | 24.43% |
| `Cc1nn(C)c(Cl)c1CNCc1cccnc1N1CCCCC1` | 19.63% |
| `CC(C)(C)OC(=O)N1CCN(C(=O)CCn2cccn2)CC1` | 7.937% |
| `O=C(NCC(O)c1ccc(F)cc1)C1CCN(C2CCCCC2)CC1` (stereo not shown) | 9.97% |
| `O=C(CCO)N1CC[C@@H]2CN(C(=O)c3ccco3)CCO[C@@H]2C1` | 10.45% |
| `CCc1cccc(OCC(=O)N2CCCC(n3cncn3)C2)c1` (stereo not shown) | 10.46% |
| `CNC(=O)c1cc(NC(=O)NC(C)CCc2cccn2C)ccc1F` (stereo not shown) | 8.511% |
| `CCCc1noc(C2CCCCN2C(=O)CCc2cnn(C)c2)n1` (stereo not shown) | -2.762% |
| `Cn1cc(C2=CCN(CCCOc3ccc(C(N)=O)cc3)CC2)cn1` | 16.67% |
| `COC1COC2(CCN(C(=O)c3ccccc3F)CC2)C1` (stereo not shown) | 10.91% |
| `Cc1cc(C)c(CNc2ncnc3ccsc23)c(=O)[nH]1` | 17.9% |
| `CCC(C)(CNC(=O)c1ccon1)NC(=O)c1ccon1` (stereo not shown) | 3.359% |
| `CC(NCc1ccc(OCC(N)=O)cc1)c1ccc(Cl)c(Cl)c1` (stereo not shown) | 15.73% |
| `COc1c(CNC(c2nccn2C)C(C)C)c(C)nn1C` (stereo not shown) | 11.22% |
| `N[C@@H]1CCN(Cc2cccc(N3CCOCC3)c2)C[C@H]1O` | 8.934% |
| `N#Cc1ccccc1N1CCCN(C(=O)NCc2cc[nH]n2)CC1` | 10.34% |
| `N#Cc1ccc(C(=O)N2CCn3c(Cn4cccn4)cnc3C2)cc1` | 3.766% |
| `CCCn1cc(-c2cc(C(=O)N(C)C)c3ccc(OC)cc3n2)cn1` | 20.32% |
| `c1ccc(-c2cnn3cc(CN4CCC5(CCO5)CC4)cnc23)cc1` | 6.164% |
| `Cc1cnn(CCC(=O)N2CCN(c3nccs3)CC2)c1` | 9.296% |
| `O=C(Cn1ncc(N2CCNCC2)cc1=O)NCCc1ccc(F)cc1` | 16.67% |
| `CN(Cc1cn(-c2ccccc2)nn1)C1CCCN(c2cccnn2)C1` (stereo not shown) | 11.96% |
| `Cc1noc(C2CCCCN2C(=O)NC2CCCC2)n1` (stereo not shown) | 8.451% |
| `CC(=O)Nc1nc(CN(C)C2CCCN(c3cccnn3)C2)cs1` (stereo not shown) | 6.442% |
| `NC(=O)NC(CC(=O)NCCc1ccc(F)cc1)c1ccccc1` (stereo not shown) | 11.81% |
| `Cc1cc(C)nc(N2CCCC(C)(c3[nH]ncc3C(=O)N(C)C)C2)n1` (stereo not shown) | 10.47% |
| `Cc1cc(N2CCCN(c3ccnc(C)c3)CC2)ccn1` | 15.79% |
| `O=C(c1ccc2c(c1)CCO2)N1CCN(c2ncccn2)CC1` | 3.106% |
| `COCCN1CCN(CC2(O)CCCCC2)CC1` | 1.804% |
| `CC(=O)N1Cc2ccccc2C[C@H]1C(=O)N(C)Cc1ccccn1` | 1.718% |
| `NC(=O)[C@@H]1Cc2ccccc2CN1S(=O)(=O)N1CCCCC1` | 21.32% |
| `Cc1cn2nc(N3CCCC3C(=O)N3CCSCC3)sc2n1` (stereo not shown) | 10.09% |
| `O=S(=O)(NCc1ccccc1)Nc1cccc(Cn2cncn2)c1` | 3.581% |
| `CCn1ccc(C(=O)N2CCCC2c2nnc(-c3scnc3C)o2)n1` (stereo not shown) | 8.385% |
| `CN(C(=O)COC1CCCCC1)C1CCN(CC2CCOC2)CC1` (stereo not shown) | 9.774% |
| `Cc1nc(N2CCCC2)ncc1-c1cc(O)nc(N2CCN(C)CC2)n1` | -0.2513% |
| `N#Cc1cccc(N2CC3(CCN(C(=O)c4ccncc4)C3)CC2=O)c1` (stereo not shown) | 3.268% |
| `CC(C)(C)C(O)CN1CCN(CC(=O)NC2CCOCC2)CC1` (stereo not shown) | 14.09% |
| `COCc1nc(C(=O)N2CCCC2c2ccccc2C)cs1` (stereo not shown) | 22.92% |
| `COCc1nnn2c1CN(C(=O)c1ccnnc1)CCC2` | 5.226% |
| `N#CCCCS(=O)(=O)NC1(c2cccc(Br)c2)CC1` | 17.02% |
| `Cn1c(C(=O)NC2CC2)nc2c1CCN(c1ncccn1)C2` | 9.058% |
| `Cc1ccnn1CCC(=O)N1CCN(C2CCc3ccccc3C2)CC1` (stereo not shown) | 4.467% |
| `CCOc1ccc(Cl)c(C(=O)NCCS(N)(=O)=O)n1` | 15.21% |
| `CC1CN(CC(=O)NCCc2ccccc2)CCN1c1nccs1` (stereo not shown) | 8.672% |
| `CC(C)C1CN(C(=O)Nc2cnn(CC(F)F)c2)CCO1` (stereo not shown) | 6.522% |
| `CCOC(=O)C1(Cc2cccc(OC)c2)CCCN(Cc2ncc[nH]2)C1` (stereo not shown) | 2.01% |
| `CC(=O)N1CCCCC[C@@H]2[C@@H]1[C@H](c1cccc(F)c1)CN2C(=O)C1CC1` | 10.87% |
| `CN(c1ncc(C(=O)Nc2ccccc2)c(N)n1)C1CCCCC1` | 22.98% |
| `CC(C)(C)c1n[nH]c(C2CN(C(=O)CCCn3cccn3)CCO2)n1` (stereo not shown) | 24.07% |
| `Cc1cc(=O)n(CC(=O)NCC2CCCO2)c(-c2ccc(F)cc2)n1` (stereo not shown) | 6.299% |
| `CC(=O)Nc1ccc(CNc2cccc(OCCF)c2)cc1` | 18.55% |
| `COc1cccc(CNC(=O)c2cc(C)nc(N3CCCCC3)n2)c1` | 25.97% |
| `O=C(CCc1cccc(F)c1F)N1CCCC(n2cncn2)C1` (stereo not shown) | 11.11% |
| `N#Cc1ccc(CNCC(C(=O)N2CCOCC2)c2ccccc2)cc1` (stereo not shown) | 14.96% |
| `CC(C)c1nc(N2CCC(N3CCCCCC3)CC2)c2cnn(C)c2n1` | 56.44% |
| `Cc1ccnc(NC(=O)c2cc(C)oc2C)c1` | -0.2786% |
| `Cc1ccc(NC(=O)c2cc(S(=O)(=O)N3CCCCC3)c[nH]2)cc1F` | 6.863% |
| `CC(C)CN1C[C@H]2N(c3ncccn3)CCC[C@@]2(C(=O)NCC2CC2)C1` | 6.718% |
| `CCC(C)C(=O)NCCc1nc(C(F)(F)F)cs1` (stereo not shown) | 9.409% |
| `Cc1cccc(CN2CCc3ncnc(N4CCCC4)c3CC2)n1` | 2.454% |
| `CN(CC(=O)N1CCCC1c1ccccn1)Cc1ccccc1` (stereo not shown) | 15.28% |
| `Cc1nc(C)c(CC(=O)NCc2ccccc2F)s1` | 6.475% |
| `C[C@@H]1CN(Cc2ccc(C(F)(F)F)cc2F)CC[C@]1(C)O` | 5.155% |
| `CCC1CCc2c(c3ccccc3[nH]c2=O)O1` (stereo not shown) | -154.7% |
| `CC(NCc1nnc2n1CCCC2)c1nc(Cc2ccccc2)no1` (stereo not shown) | 16.03% |
| `Cc1noc(C)c1CN(C)C(C)c1cccs1` (stereo not shown) | -1.882% |
| `CC(C)C(=O)NC1CCCN(C(=O)c2cc(Cl)ccc2O)C1` (stereo not shown) | 12.54% |
| `CN(Cc1ccc(F)cc1)[C@@H]1CN(S(C)(=O)=O)C[C@H]1O` | 6.854% |
| `CCN(CC)C(=O)C1CCCN(c2ncnc3oc(C)nc23)C1` (stereo not shown) | 17.13% |
| `Cc1nc(C2(O)CCCNCC2)sc1CCOc1ccccc1` (stereo not shown) | 9.061% |

Source: ChEMBL document CHEMBL3988442, “University of Dundee, Small-Polar-MMV Screening Library” (2021).